This note sets out measurements from paper PMC10827313.

The data set concerns PhDEF + PhGLO1. As to the kind of experiment: EMSA. To be noted: EMSA with TnT wheat germ in vitro translation mixture, native acrylamide gel, as in Silva et al. 2016; pH and temperature not stated; protein translated in vitro; label: 5' Cy5 on forward primer; probe letters rebuilt from the primers and the genome.

For at least one entry, the source does not settle the construct or the ends of the probe. No signal at the amounts used counts as a negative.

On to “TTCACAAACATCAAAGTTTAGCATATACAAGGTAGCTAAGCTACTTGCTCTATTCCCTAG (double strand) [AN1-bs2]”, for which the binding result is recorded as “no binding”.

Turning to “TTTATCCCAAAATAAGTGCCTCTTTCTATATTTGGTAACTCTTTAATTCAAAAATTTGTT (double strand) [AN1-bs1]”, the binding result is reported as “binds”.
